Source: the supplement of paper PMC10849652
The list shows a part of the results.

Protein sequences, listed by entry. Tags and fused reporters are not part of them. Lines headed by an entry give the natural chain unless they say otherwise; changes in a name come on top.
UniProt Q6DD88: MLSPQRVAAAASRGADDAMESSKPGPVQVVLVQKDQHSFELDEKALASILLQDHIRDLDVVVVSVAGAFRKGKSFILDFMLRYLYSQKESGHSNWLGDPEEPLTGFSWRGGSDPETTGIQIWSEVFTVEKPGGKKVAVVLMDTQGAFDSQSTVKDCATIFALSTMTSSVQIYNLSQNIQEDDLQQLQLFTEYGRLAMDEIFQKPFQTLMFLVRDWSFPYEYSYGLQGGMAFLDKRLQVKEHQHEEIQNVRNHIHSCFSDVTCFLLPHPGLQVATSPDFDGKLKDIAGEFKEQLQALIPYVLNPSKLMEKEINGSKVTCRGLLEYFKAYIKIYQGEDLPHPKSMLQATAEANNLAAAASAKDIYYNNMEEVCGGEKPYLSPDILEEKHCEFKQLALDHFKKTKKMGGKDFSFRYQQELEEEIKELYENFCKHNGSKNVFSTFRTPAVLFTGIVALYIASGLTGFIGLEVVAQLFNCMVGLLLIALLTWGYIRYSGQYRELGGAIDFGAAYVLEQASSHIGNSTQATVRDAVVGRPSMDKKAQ
UniProt Q9NQ11: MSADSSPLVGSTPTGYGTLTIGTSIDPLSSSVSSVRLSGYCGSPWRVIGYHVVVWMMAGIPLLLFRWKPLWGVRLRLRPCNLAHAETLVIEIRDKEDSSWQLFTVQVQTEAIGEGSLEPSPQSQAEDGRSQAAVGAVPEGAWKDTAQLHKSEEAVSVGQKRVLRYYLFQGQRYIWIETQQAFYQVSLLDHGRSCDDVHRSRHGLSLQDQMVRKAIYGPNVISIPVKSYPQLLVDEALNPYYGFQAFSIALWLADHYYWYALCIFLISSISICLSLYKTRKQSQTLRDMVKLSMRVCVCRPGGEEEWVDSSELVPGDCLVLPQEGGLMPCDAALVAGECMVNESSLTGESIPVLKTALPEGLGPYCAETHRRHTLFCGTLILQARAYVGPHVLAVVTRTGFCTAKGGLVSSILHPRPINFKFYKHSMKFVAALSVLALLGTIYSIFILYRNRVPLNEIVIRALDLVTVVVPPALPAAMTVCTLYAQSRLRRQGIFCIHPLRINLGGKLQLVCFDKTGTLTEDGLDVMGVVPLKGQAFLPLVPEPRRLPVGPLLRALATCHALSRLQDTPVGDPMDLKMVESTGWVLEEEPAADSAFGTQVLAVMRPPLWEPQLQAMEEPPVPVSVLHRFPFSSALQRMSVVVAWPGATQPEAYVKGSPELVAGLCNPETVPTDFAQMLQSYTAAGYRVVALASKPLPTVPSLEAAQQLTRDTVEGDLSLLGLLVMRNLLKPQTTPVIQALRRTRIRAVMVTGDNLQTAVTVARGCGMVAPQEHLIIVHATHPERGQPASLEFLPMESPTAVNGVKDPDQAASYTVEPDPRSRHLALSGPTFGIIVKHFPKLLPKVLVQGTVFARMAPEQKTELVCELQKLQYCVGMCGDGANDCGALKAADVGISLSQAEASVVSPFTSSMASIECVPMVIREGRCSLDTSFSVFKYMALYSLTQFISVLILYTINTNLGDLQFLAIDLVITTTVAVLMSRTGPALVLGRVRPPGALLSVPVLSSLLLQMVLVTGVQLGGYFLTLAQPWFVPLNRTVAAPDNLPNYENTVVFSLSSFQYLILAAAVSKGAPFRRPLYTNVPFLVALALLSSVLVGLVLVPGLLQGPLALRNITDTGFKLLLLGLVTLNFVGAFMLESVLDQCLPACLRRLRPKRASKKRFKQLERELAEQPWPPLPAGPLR
UniProt Q13510, whole entry, looked up: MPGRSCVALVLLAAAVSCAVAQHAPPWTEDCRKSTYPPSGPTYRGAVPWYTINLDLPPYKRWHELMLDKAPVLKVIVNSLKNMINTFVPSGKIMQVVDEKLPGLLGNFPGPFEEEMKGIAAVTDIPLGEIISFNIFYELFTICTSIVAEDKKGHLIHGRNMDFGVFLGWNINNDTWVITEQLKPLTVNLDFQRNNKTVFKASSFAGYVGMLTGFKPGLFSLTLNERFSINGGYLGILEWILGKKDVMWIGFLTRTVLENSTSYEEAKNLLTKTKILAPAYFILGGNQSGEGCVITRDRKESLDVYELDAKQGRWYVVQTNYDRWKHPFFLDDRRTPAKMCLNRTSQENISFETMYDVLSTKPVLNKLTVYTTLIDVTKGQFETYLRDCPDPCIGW
UniProt P15289: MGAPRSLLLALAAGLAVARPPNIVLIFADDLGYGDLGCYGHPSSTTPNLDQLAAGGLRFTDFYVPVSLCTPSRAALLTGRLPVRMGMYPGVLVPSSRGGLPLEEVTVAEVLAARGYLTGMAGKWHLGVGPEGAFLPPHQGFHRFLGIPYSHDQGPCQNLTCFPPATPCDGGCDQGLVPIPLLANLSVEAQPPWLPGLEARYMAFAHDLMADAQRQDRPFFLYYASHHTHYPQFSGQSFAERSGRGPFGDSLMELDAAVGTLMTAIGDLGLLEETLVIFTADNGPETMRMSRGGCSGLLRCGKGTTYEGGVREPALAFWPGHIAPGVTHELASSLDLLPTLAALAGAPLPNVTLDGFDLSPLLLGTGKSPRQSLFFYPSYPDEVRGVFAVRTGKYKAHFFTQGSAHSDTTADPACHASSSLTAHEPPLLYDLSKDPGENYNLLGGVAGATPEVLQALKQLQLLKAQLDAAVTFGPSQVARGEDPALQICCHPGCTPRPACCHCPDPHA
UniProt P36404: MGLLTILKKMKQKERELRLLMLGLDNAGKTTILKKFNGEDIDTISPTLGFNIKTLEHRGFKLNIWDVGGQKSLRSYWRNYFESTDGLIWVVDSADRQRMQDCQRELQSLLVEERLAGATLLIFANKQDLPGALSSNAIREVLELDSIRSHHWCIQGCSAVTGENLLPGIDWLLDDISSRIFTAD
UniProt P27540, whole entry, looked up: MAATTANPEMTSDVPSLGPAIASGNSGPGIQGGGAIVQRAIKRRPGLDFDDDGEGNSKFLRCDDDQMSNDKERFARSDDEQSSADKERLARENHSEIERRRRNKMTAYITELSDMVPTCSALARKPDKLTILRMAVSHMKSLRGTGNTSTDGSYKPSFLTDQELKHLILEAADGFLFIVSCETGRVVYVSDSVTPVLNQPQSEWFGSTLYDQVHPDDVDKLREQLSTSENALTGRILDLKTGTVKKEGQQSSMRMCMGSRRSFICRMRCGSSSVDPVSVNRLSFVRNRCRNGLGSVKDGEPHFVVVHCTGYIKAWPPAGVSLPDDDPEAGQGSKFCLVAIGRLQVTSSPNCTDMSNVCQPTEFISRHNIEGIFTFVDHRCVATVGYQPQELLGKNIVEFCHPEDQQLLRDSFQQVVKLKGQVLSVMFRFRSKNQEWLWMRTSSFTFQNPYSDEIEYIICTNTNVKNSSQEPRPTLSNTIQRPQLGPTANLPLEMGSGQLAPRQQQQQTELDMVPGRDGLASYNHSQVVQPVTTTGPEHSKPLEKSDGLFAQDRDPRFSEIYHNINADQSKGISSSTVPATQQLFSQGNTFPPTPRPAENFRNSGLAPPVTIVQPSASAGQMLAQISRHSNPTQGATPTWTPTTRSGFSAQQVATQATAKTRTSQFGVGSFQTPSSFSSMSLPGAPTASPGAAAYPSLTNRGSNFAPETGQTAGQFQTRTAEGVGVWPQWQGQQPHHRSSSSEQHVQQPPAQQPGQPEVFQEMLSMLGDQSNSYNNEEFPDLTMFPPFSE
UniProt P48047: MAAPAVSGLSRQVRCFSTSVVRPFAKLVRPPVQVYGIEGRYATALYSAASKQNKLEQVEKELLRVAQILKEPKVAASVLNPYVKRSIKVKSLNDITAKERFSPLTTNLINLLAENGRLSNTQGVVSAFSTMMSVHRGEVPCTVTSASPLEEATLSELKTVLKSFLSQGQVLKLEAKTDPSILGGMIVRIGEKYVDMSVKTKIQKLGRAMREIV
UniProt P00966: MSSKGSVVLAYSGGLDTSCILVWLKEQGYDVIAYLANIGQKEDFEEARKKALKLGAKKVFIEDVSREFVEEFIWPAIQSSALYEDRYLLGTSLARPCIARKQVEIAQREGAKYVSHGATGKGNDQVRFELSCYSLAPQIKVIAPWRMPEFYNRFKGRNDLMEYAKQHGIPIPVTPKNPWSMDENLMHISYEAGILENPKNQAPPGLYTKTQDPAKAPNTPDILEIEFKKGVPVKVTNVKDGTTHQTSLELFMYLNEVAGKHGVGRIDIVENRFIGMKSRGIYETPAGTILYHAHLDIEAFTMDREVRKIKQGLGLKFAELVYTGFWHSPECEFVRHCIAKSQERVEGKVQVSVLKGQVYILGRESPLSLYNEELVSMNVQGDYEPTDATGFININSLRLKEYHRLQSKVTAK
UniProt Q8NBU5: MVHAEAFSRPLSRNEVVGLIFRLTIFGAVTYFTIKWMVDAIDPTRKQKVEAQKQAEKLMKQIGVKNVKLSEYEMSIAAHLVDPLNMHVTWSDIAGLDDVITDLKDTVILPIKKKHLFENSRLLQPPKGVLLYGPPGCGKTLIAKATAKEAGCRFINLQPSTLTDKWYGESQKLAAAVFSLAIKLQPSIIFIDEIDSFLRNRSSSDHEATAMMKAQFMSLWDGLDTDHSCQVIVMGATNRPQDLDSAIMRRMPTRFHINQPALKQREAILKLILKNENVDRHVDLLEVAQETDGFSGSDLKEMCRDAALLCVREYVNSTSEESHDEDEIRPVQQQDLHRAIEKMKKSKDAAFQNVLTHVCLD
UniProt Q8NB49: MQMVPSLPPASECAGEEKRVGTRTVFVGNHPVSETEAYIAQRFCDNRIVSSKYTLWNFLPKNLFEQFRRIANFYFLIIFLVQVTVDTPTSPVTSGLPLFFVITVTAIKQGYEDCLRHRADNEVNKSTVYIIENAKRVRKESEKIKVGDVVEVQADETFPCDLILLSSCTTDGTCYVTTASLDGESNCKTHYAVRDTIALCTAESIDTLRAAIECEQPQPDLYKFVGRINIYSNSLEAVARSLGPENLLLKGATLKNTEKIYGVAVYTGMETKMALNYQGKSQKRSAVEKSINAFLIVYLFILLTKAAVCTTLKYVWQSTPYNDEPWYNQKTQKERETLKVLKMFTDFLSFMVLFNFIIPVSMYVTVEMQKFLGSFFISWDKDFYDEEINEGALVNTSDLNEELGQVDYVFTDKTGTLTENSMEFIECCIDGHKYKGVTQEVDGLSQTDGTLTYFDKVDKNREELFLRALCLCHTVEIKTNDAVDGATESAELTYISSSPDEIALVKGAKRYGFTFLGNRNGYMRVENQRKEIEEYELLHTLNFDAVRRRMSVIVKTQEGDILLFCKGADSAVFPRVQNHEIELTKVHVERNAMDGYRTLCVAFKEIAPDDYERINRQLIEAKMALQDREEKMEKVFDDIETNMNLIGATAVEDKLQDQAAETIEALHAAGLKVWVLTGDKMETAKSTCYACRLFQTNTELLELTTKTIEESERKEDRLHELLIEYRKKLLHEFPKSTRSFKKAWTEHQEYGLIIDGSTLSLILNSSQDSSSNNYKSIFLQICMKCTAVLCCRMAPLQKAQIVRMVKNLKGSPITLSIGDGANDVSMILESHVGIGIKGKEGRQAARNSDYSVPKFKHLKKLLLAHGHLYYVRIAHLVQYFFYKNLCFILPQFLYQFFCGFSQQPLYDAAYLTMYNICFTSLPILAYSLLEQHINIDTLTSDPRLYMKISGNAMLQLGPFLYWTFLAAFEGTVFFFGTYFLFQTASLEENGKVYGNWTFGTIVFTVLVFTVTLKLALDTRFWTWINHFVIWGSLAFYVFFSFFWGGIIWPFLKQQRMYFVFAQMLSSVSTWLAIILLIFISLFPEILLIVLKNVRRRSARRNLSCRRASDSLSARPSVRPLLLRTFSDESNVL
UniProt Q9BPX5, whole entry, looked up: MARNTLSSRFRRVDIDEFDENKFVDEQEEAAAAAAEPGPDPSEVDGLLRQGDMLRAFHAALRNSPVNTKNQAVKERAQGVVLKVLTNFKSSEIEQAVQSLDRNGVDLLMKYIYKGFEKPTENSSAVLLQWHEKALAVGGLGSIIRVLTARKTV
UniProt Q8NHH9: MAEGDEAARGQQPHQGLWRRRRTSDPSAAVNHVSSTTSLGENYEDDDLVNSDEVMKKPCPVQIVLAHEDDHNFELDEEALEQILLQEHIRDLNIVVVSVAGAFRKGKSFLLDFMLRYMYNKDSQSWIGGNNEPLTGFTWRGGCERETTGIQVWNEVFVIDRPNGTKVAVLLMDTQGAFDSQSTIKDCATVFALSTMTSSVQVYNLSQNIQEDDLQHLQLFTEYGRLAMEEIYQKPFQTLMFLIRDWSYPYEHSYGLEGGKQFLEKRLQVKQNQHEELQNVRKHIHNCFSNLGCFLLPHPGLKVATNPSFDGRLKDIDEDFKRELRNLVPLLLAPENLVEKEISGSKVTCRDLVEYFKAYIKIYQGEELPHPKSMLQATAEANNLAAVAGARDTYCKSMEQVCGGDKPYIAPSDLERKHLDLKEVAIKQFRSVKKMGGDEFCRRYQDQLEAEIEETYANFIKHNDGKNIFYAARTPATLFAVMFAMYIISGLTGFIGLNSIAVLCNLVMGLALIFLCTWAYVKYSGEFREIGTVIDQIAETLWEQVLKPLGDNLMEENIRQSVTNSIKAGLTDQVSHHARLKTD

Tests used:
Test in all cases: log2 fold change, soluble protein after heating vs DMSO (PISA); higher = thermal stabilisation; K562 cells, 10 uM, 30 min; active = over 0.2 and 3.5 SD of the protein, either way, in both replicates (recomputed)
bafetinib = compound: Cc1ccc(NC(=O)c2ccc(CN3CC[C@H](N(C)C)C3)c(C(F)(F)F)c2)cc1Nc1nccc(-c2cncnc2)n1 [bafetinib]
Method in brief: (§1)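 K562 cells at 2×10^6 cells/mL were exposed to 10 μM compound for 30 min, then aliquots were heated for 3 min across 48°C-58°C, pooled, and extracted in PBS containing 0.5% NP-40 at 4°C. The supernatant after 21,000xg for 90 min was taken as soluble protein and measured by TMTpro 16plex LC-MS/MS with channel sums equalised. Thermal stability is reported relative to control samples, with values from duplicates. Fold changes are given on a log2 scale.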

[1] = compound: Cc1cccc(CC(=O)N2CCc3c2ccc(-c2cn(C)c4ncnc(N)c24)c3F)n1
Method in brief: as §1

nilotinib = compound: Cc1cn(-c2cc(NC(=O)c3ccc(C)c(Nc4nccc(-c5cccnc5)n4)c3)cc(C(F)(F)F)c2)cn1 [nilotinib]
Method in brief: as §1

[2] = compound: Cc1nc(Nc2n[nH]c3c2CN(C(=O)N[C@H](CN(C)C)c2ccccc2)C3(C)C)c2sccc2n1
Method in brief: as §1

dasatinib = compound: Cc1nc(Nc2ncc(C(=O)Nc3c(C)cccc3Cl)s2)cc(N2CCN(CCO)CC2)n1 [dasatinib]
Method in brief: as §1

[3] = compound: Cc1ncc(-c2ccnc(Nc3ccc(S(C)(=O)=O)cc3)n2)n1C(C)C
Method in brief: as §1

[4] = compound: Cn1cc(-c2ccc3c(c2)CCN3C(=O)Cc2cccc(C(F)(F)F)c2)c2c(N)ncnc21
Method in brief: as §1

[5] = compound: Cn1cc(-c2ccc3nnc(C(F)(F)c4ccc5ncccc5c4)n3n2)cn1
Method in brief: as §1

tipifarnib = compound: Cn1cncc1[C@@](N)(c1ccc(Cl)cc1)c1ccc2c(c1)c(-c1cccc(Cl)c1)cc(=O)n2C [tipifarnib]
Method in brief: as §1

mubritinib = compound: FC(F)(F)c1ccc(/C=C/c2nc(COc3ccc(CCCCn4ccnn4)cc3)co2)cc1 [mubritinib]
Method in brief: as §1

Measured: log2 fold change

ASL (UniProt P04424)
inactive: bafetinib -0.038 | [1] 0.008 | nilotinib 0.031 | [2] -0.007 | dasatinib 0.013 | [3] -0.006 | [4] 0.018 | [5] 0.022 | tipifarnib -0.02 | mubritinib 0.066

ARPC4 isoform 3 (UniProt P59998)
inactive: bafetinib 0 | [1] -0.035 | nilotinib 0.104 | [2] -0.027 | dasatinib 0.103 | [3] 0.011 | [4] -0.009 | [5] -0.003 | tipifarnib -0.034 | mubritinib 0.058

ATG2B (UniProt Q96BY7)
inactive: bafetinib -0.087 | [1] 0 | nilotinib -0.012 | [2] -0.043 | dasatinib -0.002 | [3] 0.027 | [4] 0.005 | [5] 0.021 | tipifarnib -0.062 | mubritinib 0.068

ASNS (UniProt P08243)
inactive: bafetinib -0.055 | [1] 0.02 | nilotinib 0.002 | [2] 0.021 | dasatinib 0 | [3] -0.003 | [4] 0.034 | [5] 0.015 | tipifarnib -0.033 | mubritinib 0.012

ATP1B1 (UniProt P05026)
inactive: bafetinib 0.037 | [1] -0.083 | nilotinib 0.144 | [2] -0.088 | dasatinib -0.03 | [3] 0.079 | [4] 0.129 | [5] 0.07 | tipifarnib -0.008 | mubritinib 0.093

ATL3 (UniProt Q6DD88)
inactive: bafetinib -0.082 | [1] 0.073 | nilotinib -0.091 | [2] -0.006 | dasatinib -0.071 | [3] 0.018 | [4] 0.065 | [5] 0.016 | tipifarnib -0.063 | mubritinib 0.013

ATPAF2 (UniProt Q8N5M1)
inactive: bafetinib -0.024 | [1] 0.006 | nilotinib 0.011 | [2] -0.016 | dasatinib 0.015 | [3] -0.036 | [4] 0.019 | [5] 0.035 | tipifarnib 0.057 | mubritinib 0.045

ATP13A2 (UniProt Q9NQ11)
inactive: bafetinib -0.002 | [1] 0.001 | nilotinib 0.01 | [2] 0.014 | dasatinib -0.007 | [3] 0.018 | [4] 0.045 | [5] 0.069 | tipifarnib 0.06 | mubritinib 0.108

ASAH1 isoform 2 (UniProt Q13510)
inactive: bafetinib -0.067 | [1] -0.001 | nilotinib 0.017 | [2] 0.017 | dasatinib -0.045 | [3] 0.009 | [4] -0.011 | [5] 0.009 | tipifarnib 0.04 | mubritinib 0.023

ARSB (UniProt P15848)
inactive: bafetinib -0.144 | [1] 0.01 | nilotinib 0.009 | [2] -0.01 | dasatinib -0.017 | [3] 0.017 | [4] 0.051 | [5] 0.02 | tipifarnib 0.027 | mubritinib 0.071

ATP6V0A2 (UniProt Q9Y487)
inactive: bafetinib -0.041 | [1] 0.007 | nilotinib 0.035 | [2] 0.006 | dasatinib -0.006 | [3] -0.077 | [4] -0.019 | [5] 0.027 | tipifarnib 0.008 | mubritinib -0.019

ARSA (UniProt P15289)
inactive: bafetinib -0.003 | [1] -0.017 | nilotinib 0.001 | [2] 0.157 | dasatinib 0.154 | [3] 0.023 | [4] 0.001 | [5] -0.024 | tipifarnib -0.007 | mubritinib -0.011

ARPC2 (UniProt O15144)
inactive: bafetinib -0.026 | [1] -0.002 | nilotinib 0.083 | [2] 0.002 | dasatinib 0.054 | [3] 0.027 | [4] -0.055 | [5] -0.006 | tipifarnib -0.015 | mubritinib 0.049

Two records drawn at random from the list so far, as already listed:
ARPC2 (UniProt O15144)
inactive: bafetinib -0.026 | [1] -0.002 | nilotinib 0.083 | [2] 0.002 | dasatinib 0.054 | [3] 0.027 | [4] -0.055 | [5] -0.006 | tipifarnib -0.015 | mubritinib 0.049

ASAH1 isoform 2 (UniProt Q13510)
inactive: bafetinib -0.067 | [1] -0.001 | nilotinib 0.017 | [2] 0.017 | dasatinib -0.045 | [3] 0.009 | [4] -0.011 | [5] 0.009 | tipifarnib 0.04 | mubritinib 0.023

(further entries)

ARL2 (UniProt P36404)
inactive: bafetinib 0.014 | [1] 0.04 | nilotinib -0.045 | [2] 0.009 | dasatinib 0.018 | [3] 0.01 | [4] 0.015 | [5] -0.012 | tipifarnib -0.038 | mubritinib -0.024

ARNT (UniProt P27540)
inactive: bafetinib 0.043 | [1] -0.008 | nilotinib -0.031 | [2] -0.057 | dasatinib -0.14 | [3] 0.029 | [4] 0.02 | [5] -0.134 | tipifarnib -0.008 | mubritinib 0.076

ATP11B (UniProt Q9Y2G3)
inactive: bafetinib -0.057 | [1] -0.072 | nilotinib 0.035 | [2] 0.044 | dasatinib 0.019 | [3] 0.166 | [4] 0.004 | [5] 0.015 | tipifarnib -0.008 | mubritinib -0.007

ATP5PO (UniProt P48047)
inactive: bafetinib -0.02 | [1] -0.021 | nilotinib 0.02 | [2] 0.025 | dasatinib 0.075 | [3] -0.021 | [4] -0.038 | [5] 0.028 | tipifarnib 0.051 | mubritinib 0.02

ATIC (UniProt P31939)
active: mubritinib 0.206
inactive: bafetinib 0.067 | [1] 0.058 | nilotinib 0.158 | [2] -0.033 | dasatinib 0.022 | [3] -0.006 | [4] 0.104 | [5] 0.048 | tipifarnib -0.047

ARL6IP1 (UniProt Q15041)
inactive: bafetinib -0.074 | [1] 0.09 | nilotinib 0.02 | [2] -0.004 | dasatinib 0.013 | [3] -0.053 | [4] 0.014 | [5] 0.161 | tipifarnib 0.007 | mubritinib 0.061

ARPC1A (UniProt Q92747)
inactive: bafetinib -0.043 | [1] 0 | nilotinib 0.18 | [2] 0.026 | dasatinib 0.105 | [3] 0.181 | [4] 0.023 | [5] 0.011 | tipifarnib -0.079 | mubritinib 0.005

ASS1 (UniProt P00966)
inactive: bafetinib -0.113 | [1] -0.001 | nilotinib -0.017 | [2] 0.021 | dasatinib 0.013 | [3] -0.017 | [4] 0.093 | [5] 0.06 | tipifarnib 0.005 | mubritinib 0.009

ATAD1 (UniProt Q8NBU5)
inactive: bafetinib -0.007 | [1] 0.048 | nilotinib 0.02 | [2] -0.008 | dasatinib -0.033 | [3] -0.002 | [4] 0.037 | [5] -0.026 | tipifarnib 0.014 | mubritinib -0.028

ARL2BP (UniProt Q9Y2Y0)
inactive: bafetinib 0.001 | [1] 0 | nilotinib -0.078 | [2] -0.086 | dasatinib -0.069 | [3] -0.103 | [4] 0.125 | [5] 0.011 | tipifarnib -0.091 | mubritinib -0.027

ATP11C (UniProt Q8NB49)
inactive: bafetinib 0.039 | [1] 0.049 | nilotinib 0.032 | [2] 0.001 | dasatinib 0.041 | [3] 0.003 | [4] 0.042 | [5] 0.002 | tipifarnib -0.024 | mubritinib 0.036

ATP5F1A (UniProt P25705)
inactive: bafetinib -0.007 | [1] -0.039 | nilotinib -0.001 | [2] 0.006 | dasatinib 0.058 | [3] -0.036 | [4] 0.018 | [5] -0.019 | tipifarnib 0.06 | mubritinib 0.019

ARPC5L (UniProt Q9BPX5)
inactive: bafetinib -0.054 | [1] -0.032 | nilotinib 0.092 | [2] -0.053 | dasatinib 0.081 | [3] 0.018 | [4] -0.046 | [5] 0.05 | tipifarnib 0.016 | mubritinib 0.069

ATL2 (UniProt Q8NHH9)
inactive: bafetinib 0.026 | [1] 0.034 | nilotinib 0.081 | [2] -0.008 | dasatinib -0.129 | [3] 0.031 | [4] 0.083 | [5] 0.18 | tipifarnib -0.014 | mubritinib 0.104

ARPC1B (UniProt O15143)
inactive: bafetinib -0.028 | [1] 0.068 | nilotinib 0.141 | [2] -0.028 | dasatinib 0.014 | [3] 0.067 | [4] 0.029 | [5] -0.062 | tipifarnib -0.079 | mubritinib -0.014

ATAD3A isoform 2 (UniProt Q9NVI7)
inactive: bafetinib -0.104 | [1] 0.035 | nilotinib -0.141 | [2] -0.053 | dasatinib -0.094 | [3] 0 | [4] -0.082 | [5] -0.101 | tipifarnib 0.097 | mubritinib -0.215
